Measurements published in article PMC9799976.
These are yes or no findings as the source states them, for the method shown. In cells and extracts the contact can be indirect. A result given as binding can be weak or reduced; the word gives no strength.

Target: neuron-specific dynein intermediate chain isoform IC-1B
Test: co-IP; HEK293 cells transfected with IC-1B and HA-tagged DCX with or without JIP3; antibody for HA precipitates HA-DCX; Western blot for DIC and HA

B1: JIP3 expressed in HEK293 cells (protein, UniProt Q9ESN9 1-1337)
chain: MMEIQMDEGGGVVVYQDDYCSGSVMSERVSGLAGSIYREFERLIHCYDEEVVKELMPLVVNVLENLDSVLSENQEHEVELELLREDNEQLLTQYEREKALRKQAEEKFIEFEDALEQEKKELQIQVEHYEFQTRQLELKAKNYADQISRLEERESEMKKEYNALHQRHTEMIQTYVEHIERSKMQQVGGSGQTESSLPGRSRKERPTSLNVFPLADGMVRAQMGGKLVPAGDHWHLSDLGQLQSSSSYQCPNDEMSESGQSSAAATPSTTGTKSNTPTSSVPSAAVTPLNESLQPLGDYVSVTKNNKQAREKRNSRNMEVQVTQEMRNVSIGMGSSDEWSDVQDIIDSTPELDVCPETRLERTGSSPTQGIVNKAFGINTDSLYHELSTAGSEVIGDVDEGADLLGEFSVRDDFFGMGKEVGNLLLENSQLLETKNALNVVKNDLIAKVDQLSGEQEVLKGELEAAKQAKVKLENRIKELEEELKRVKSEAVTARREPREEVEDVSSYLCTELDKIPMAQRRRFTRVEMARVLMERNQYKERLMELQEAVRWTEMIRASREHPSVQEKKKSTIWQFFSRLFSSSSSPPPAKRSYPSVNIHYKSPTAAGFSQRRSHALCQISAGSRPLEFFPDDDCTSSARREQKREQYRQVREHVRNDDGRLQACGWSLPAKYKQLSPNGGQEDTRMKNVPVPVYCRPLVEKDPSTKLWCAAGVNLSGWKPHEEDSSNGPKPVPGRDPLTCDREGEGEPKSTHPSPEKKKAKETPEADATSSRVWILTSTLTTSKVVIIDANQPGTIVDQFTVCNAHVLCISSIPAASDSDYPPGEMFLDSDVNPEDSGADGVLAGITLVGCATRCNVPRSNCSSRGDTPVLDKGQGDVATTANGKVNPSQSTEEATEATEVPDPGPSESEATTVRPGPLTEHVFTDPAPTPSSSTQPASENGSESNGTIVQPQVEPSGELSTTTSSAAPTMWLGAQNGWLYVHSAVANWKKCLHSIKLKDSVLSLVHVKGRVLVALADGTLAIFHRGEDGQWDLSNYHLMDLGHPHHSIRCMAVVNDRVWCGYKNKVHVIQPKTMQIEKSFDAHPRRESQVRQLAWIGDGVWVSIRLDSTLRLYHAHTHQHLQDVDIEPYVSKMLGTGKLGFSFVRITALLIAGNRLWVGTGNGVVISIPLTETVVLHRGQLLGLRANKTSPTSGEGTRPGGIIHVYGDDSSDKAASSFIPYCSMAQAQLCFHGHRDAVKFFVSVPGNVLATLNGSVLDSPSEGPGPAAPAADAEGQKLKNALVLSGGEGYIDFRIGDGEDDETEECAGDVNQTKPSLSKAERSHIIVWQVSYTPE
With B1 the binding was “binds”.
